This assay addresses T1, hydrogen voltage-gated channel 1 (HVCN1) on CD18/HVCN1 CHO cells (UniProt Q96D96).
T1 sequence: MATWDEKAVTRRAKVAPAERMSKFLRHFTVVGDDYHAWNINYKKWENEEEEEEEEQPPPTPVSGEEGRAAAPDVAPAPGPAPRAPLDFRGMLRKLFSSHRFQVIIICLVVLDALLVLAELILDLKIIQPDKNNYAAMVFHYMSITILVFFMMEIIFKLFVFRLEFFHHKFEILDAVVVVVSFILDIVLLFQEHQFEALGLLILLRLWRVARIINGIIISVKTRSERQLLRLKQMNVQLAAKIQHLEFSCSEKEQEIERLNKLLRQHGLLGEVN
In words: flow cytometry on cells; purified CC8 LukAB titrated in PBS, added to 100,000 CHO cells, on ice 10 min; bound LukAB detected with anti-His PE; ΔMFI with PBS signal subtracted; only the binder purified. A general note: Flow cytometry measures light scatter and fluorescence of single cells or particles in a stream.

These are yes or no findings as the source states them, for the method shown. Binding calls can cover weak binding; strength is not graded here. Tags and fused reporters may be left off the sequences shown.

Consider “WT CC8 LukAB (leukocidin A/leukocidin B) heterodimer (S. aureus) (complex)”, for which the binding result is on record as “binds”.
